From PMC9754640, “Z-REX uncovers a bifurcation in function of Keap1 paralogs” (eLife, 2022) come the findings set out here.

The target in the test is T1, Myc-Halo-TEV-3xFlag-zKeap1a (zebrafish (Danio rerio)) (UniProt Q1ECZ2).
T1 sequence: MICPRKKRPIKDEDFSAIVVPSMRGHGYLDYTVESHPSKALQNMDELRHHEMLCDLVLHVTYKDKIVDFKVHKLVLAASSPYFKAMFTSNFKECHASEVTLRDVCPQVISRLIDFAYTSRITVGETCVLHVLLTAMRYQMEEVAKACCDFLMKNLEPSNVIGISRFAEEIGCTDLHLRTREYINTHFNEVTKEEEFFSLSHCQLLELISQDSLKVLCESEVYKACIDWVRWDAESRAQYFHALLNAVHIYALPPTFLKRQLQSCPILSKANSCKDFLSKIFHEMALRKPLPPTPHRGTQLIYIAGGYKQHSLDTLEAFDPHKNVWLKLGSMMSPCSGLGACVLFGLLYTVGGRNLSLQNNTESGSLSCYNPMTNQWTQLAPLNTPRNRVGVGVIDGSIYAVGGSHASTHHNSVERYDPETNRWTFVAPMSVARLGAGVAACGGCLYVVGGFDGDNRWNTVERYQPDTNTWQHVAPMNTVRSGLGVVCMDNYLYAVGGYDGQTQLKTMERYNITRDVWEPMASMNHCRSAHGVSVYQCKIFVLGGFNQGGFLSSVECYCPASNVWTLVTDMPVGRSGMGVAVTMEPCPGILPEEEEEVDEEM
Briefly: co-IP; anti-Flag M2 agarose on normalised lysates (2 mg/mL) of HEK293T cells co-transfected with HA-Nrf2 and Halo-TEV-3xFlag-zKeap1a, -zKeap1b, both, or empty vector; cells treated with 25 uM NE or DMSO for 18 h before lysis; 50 mM Hepes pH 7.6, 150 mM NaCl, 0.1% Tween-20, overnight at 4 °C; eluted with 3xFlag peptide; western blot.

No constants are given. Whether binding was seen depends on the method and setting. In cells and extracts the contact can be indirect. Some entries that bind do so weakly or less than the wild type. Tags and fused reporters may be left off the sequences shown.

B1: HA-Nrf2 (protein, UniProt Q16236 1-605)
chain: MMDLELPPPGLPSQQDMDLIDILWRQDIDLGVSREVFDFSQRRKEYELEKQKKLEKERQEQLQKEQEKAFFAQLQLDEETGEFLPIQPAQHIQSETSGSANYSQVAHIPKSDALYFDDCMQLLAQTFPFVDDNEVSSATFQSLVPDIPGHIESPVFIATNQAQSPETSVAQVAPVDLDGMQQDIEQVWEELLSIPELQCLNIENDKLVETTMVPSPEAKLTEVDNYHFYSSIPSMEKEVGNCSPHFLNAFEDSFSSILSTEDPNQLTVNSLNSDATVNTDFGDEFYSAFIAEPSISNSMPSPATLSHSLSELLNGPIDVSDLSLCKAFNQNHPESTAEFNDSDSGISLNTSPSVASPEHSVESSSYGDTLLGLSDSEVEELDSAPGSVKQNGPKTPVHSSGDMVQPLSPSQGQSTHVHDAQCENTPEKELPVSPGHRKTPFTKDKHSSRLEAHLTRDELRAKALHIPFPVEKIINLPVVDFNEMMSKEQFNEAQLALIRDIRRRGKNKVAAQNCRKRKLENIVELEQDLDHLKDEKEKLLKEKGENDKSLHLLKKQLSTLYLEVFSMLRDEDGKPYSPSEYSLQQTRDGNVFLVPKSKKPDVKKN
As to B1, the binding entry is on record as “binds”.
